Test results as given in PubChem BioAssay AID2685 (National Center for Advancing Translational Sciences (NCATS), 2010).
The other results are listed elsewhere or left out. The main result of the screen is listed elsewhere. These columns were measured beside it and carry no call. The list favours compounds with an active or inconclusive main result. Words in brackets tell the shape of the fitted curve; partial curves, single points and poor fits give uncertain potencies.

Assay: qHTS Assay for Lipid Storage Modulators in Drosophila S3 Cells;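 on cell number change: cells counted by Cell Tracker Red CMTPX staining in the red channel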
Settings: BODIPY lipid droplet fluorescence, 18-24 h; for cell number change: measured here: cell count max response, cells fed with added oleic acid
In short: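 Drosophila S3 cells loaded with oleic acid (400 uM, as added) and compounds at several concentrations; lipid droplets imaged by 488-nm laser-scanning cytometry, 500–530 nm intensity and object ratio to cell channel. Percent activity normalized to 20 uM Triacsin C.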

[1] = measured here: lipid fluorescence (Fed channel) AC50, cells fed with added oleic acid
[2] = measured here: cell number channel AC50, cells fed with added oleic acid

| SMILES | cell number change | AC50 [1] | AC50 [2] |
| --- | --- | --- | --- |
| CCC(C(=O)N1CCOCC1)n1c2ccccc2c2nc(=O)cc(C)n21 (configuration not stated) | 14.2% | – | – |
| O=C(OCCN1CCCCC1)c1c[nH]c2ccccc12 | -17.1% | – | – |
| COc1ccc(/C=C/C(=O)Nc2ccc(-c3nnc4n3CCCCC4)cc2)c(OC)c1 | -2.2% | 29.1 µM [falling, single point] | – |
| Cc1ccc2c(c1)C1CN(C)CCC1N2CC(=O)N(C)c1ccccc1 (configuration not stated) | 5.78% | – | 3.66 µM [rising, single point] |
| N#CCC(=O)N/N=C\c1ccccc1OC/C=C/c1ccccc1 | 5.66% | – | – |
| CCc1ccc(S(=O)(=O)N(C(=O)c2ccncc2)c2ccc(OC(=O)c3ccncc3)cc2)cc1 | – | 9.2 µM [falling, partial curve] | – |
| COc1ccc(NC(=S)N(CCC(C)C)C2CCN(C(C)C)CC2)cc1 | -29.8% | – | – |
| Cc1ccc(NS(=O)(=O)c2cccc(C(=O)NCC(c3cccs3)N(C)C)c2)cc1 (configuration not stated) | – | 0.651 µM [rising, single point] | 0.58 µM [rising, single point] |
| CCCCc1c(O)nc(SCC(=O)N2CCCCCC2)[nH]c1=O | 0.901% | 6.51 µM [rising, single point] | – |
| Cc1nn(-c2ccccc2)c(Cl)c1/C=N/Nc1nc2ccccc2n1C | – | 4.11 µM [rising, partial curve] | 3.26 µM [rising, single point] |
| CCCCn1c(N)c(N(CCOC)C(=O)c2ccc(F)c(S(=O)(=O)N3CCOCC3)c2)c(=O)[nH]c1=O | 3.11% | 29.1 µM [falling, single point] | – |
| NC(=O)C1CCN(C(=O)c2cccc3ccccc23)CC1 | 10.6% | 0.00461 µM [rising, full curve, poor fit] | – |
| O=C(CCn1c(=O)oc2ccccc21)Nc1cccc(Br)c1 | 9.27% | – | – |
| CNc1oc(-c2cccc3ccccc23)nc1C#N | -20.7% | 16.4 µM [rising, single point] | – |
| CCn1cc(C(=O)NCCOC)c(=O)c2ccc(C)nc21 | -9.71% | – | – |
| Fc1ccc(OCCCn2ccnc2)cc1 | 12.6% | 0.184 µM [rising, full curve, poor fit] | – |
| Cc1cc(C)c2c(CC(=O)N(CCC#N)Cc3cccnc3)coc2c1 | – | 0.146 µM [rising, full curve, poor fit] | 0.116 µM [rising, partial curve] |
| COC(=O)Nc1ccc(S(=O)(=O)N2CCC(C(=O)N3CCCC(C)C3)CC2)cc1 (configuration not stated) | -18.4% | 6.51 µM [falling, single point] | 6.51 µM [falling, single point] |
| O=C(Cn1nnc(-c2cc(C(F)(F)F)cc(C(F)(F)F)c2)n1)NNC(=S)Nc1ccc(Cl)cc1 | -42.5% | 18.4 µM [falling, single point] | 13 µM [falling, partial curve] |
| COc1ccc(C(=O)CC(=O)C(=O)Nc2cc([N+](=O)[O-])ccc2OC)cc1 | 31.9% | 29.1 µM [rising, single point] | 18.4 µM [rising, partial curve, poor fit] |

A few values from the results shown:
Entry of `Cc1ccc(NS(=O)(=O)c2cccc(C(=O)NCC(c3cccs3)N(C)C)c2)cc1` (configuration not stated) under AC50 [2]: 0.58 µM [rising, single point]
Entry of `O=C(OCCN1CCCCC1)c1c[nH]c2ccccc12` under cell number change: -17.1%
Entry of `CCc1ccc(S(=O)(=O)N(C(=O)c2ccncc2)c2ccc(OC(=O)c3ccncc3)cc2)cc1` under AC50 [1]: 9.2 µM [falling, partial curve]
Entry of `N#CCC(=O)N/N=C\c1ccccc1OC/C=C/c1ccccc1` under cell number change: 5.66%
Entry of `CCCCn1c(N)c(N(CCOC)C(=O)c2ccc(F)c(S(=O)(=O)N3CCOCC3)c2)c(=O)[nH]c1=O` under cell number change: 3.11%

The listing continues:

| SMILES | cell number change | AC50 [1] | AC50 [2] |
| --- | --- | --- | --- |
| COc1ccc2nc3oc(C(=O)N4CCN(c5cccc(C(F)(F)F)c5)CC4)cc3cc2c1 | 23% | 29.1 µM [rising, single point] | – |
| O=C(C(=O)N1CCCc2ccccc21)N1CCCc2ccccc21 | -16.7% | 3.26 µM [rising, single point] | – |
| CCCC1C2C(=O)N(c3ccc(OC)cc3)C(=O)C2ON1c1ccccc1 (configuration not stated) | -13.7% | 29.1 µM [falling, single point] | – |
| Cc1occc1-c1nnc(SCC(=O)NCCc2ccccc2)n1C(C)c1ccccc1 (configuration not stated) | -26.4% | 2.91 µM [rising, full curve] | – |
| O=C(OCC(=O)N1CCCc2ccccc21)c1ccc(S(=O)(=O)C(F)F)cc1 | 12.5% | – | – |
| CC(C)Oc1ccc(C(=O)Nc2ccc(S(=O)(=O)N3CCN(C)CC3)cc2)cc1 | -22.5% | 29.1 µM [falling, single point] | – |
| Cc1ccc(CNCC(O)(c2ccc(F)cc2)c2ccc(F)cc2)cc1 | -67.4% | 29.1 µM [falling, single point] | 23.1 µM [falling, single point] |
| CCNC(=O)N1CCNC(=O)C1CC(=O)Nc1ccc(C(=O)OCC)cc1 (configuration not stated) | -27% | 0.82 µM [falling, full curve] | 0.92 µM [falling, full curve, poor fit] |
| CCOc1ccccc1N1CCN(C(=S)NCc2ccc(Cl)cc2)CC1 | -32.5% | 20.6 µM [falling, partial curve] | 0.651 µM [falling, full curve] |
| CC(Oc1ccccc1)c1ccn[nH]1 (configuration not stated) | 39.5% | 11.6 µM [rising, partial curve] | 16.4 µM [rising, partial curve, poor fit] |
| Cc1ccccc1N1CCN(C2CCCN(C(=O)c3cn4cccc(C)c4n3)C2)CC1 (configuration not stated) | -13.7% | – | – |
| CCc1ccc(NC(=O)C2CCN(S(=O)(=O)c3ccc4[nH]c(=O)ccc4c3)CC2)cc1 | 71.8% | – | 29.1 µM [rising, single point] |
| Cc1ccc(C)c(N2N=C(C(=O)Nc3cccnc3)CCC2=O)c1 | -0.627% | 0.58 µM [rising, full curve, poor fit] | 0.00461 µM [falling, full curve, poor fit] |
| COCCn1c(SCC(=O)NC2CCCCC2C)nnc1-c1ccncc1 (configuration not stated) | -15.2% | 6.51 µM [rising, single point] | – |
| CC1Sc2ccc(C(=O)Nc3cc(S(C)(=O)=O)ccc3Cl)cc2NC1=O (configuration not stated) | 2.27% | 29.1 µM [rising, single point] | – |
| COc1ccc(-c2cc(C(=O)Nc3c(C)nn(Cc4ccccc4Cl)c3C)no2)cc1OC | -9.58% | 0.259 µM [rising, full curve, poor fit] | – |
| CN1CCN(Cc2cccc(Oc3ccc(Cl)cc3)c2)CC1 | -30.6% | 0.58 µM [rising, full curve, poor fit] | 0.651 µM [falling, full curve] |
| COc1ccc(NC(=O)c2cc([N+](=O)[O-])ccc2N2CCCC2)cc1S(N)(=O)=O | 17.5% | – | – |
| CCn1c(SCc2nc3ccccc3c(=O)[nH]2)nc2ccccc21 | -44.2% | – | 29.1 µM [falling, single point] |
| c1coc(-c2nc3c([nH]2)CCc2nonc2-3)c1 | 24.3% | 3.66 µM [rising, single point] | – |

| SMILES | cell number change | AC50 [1] | AC50 [2] |
| --- | --- | --- | --- |
| CCOc1ccc(NC(=O)CN(C)C(=O)CCNC(=O)c2ccc(Br)cc2)cc1OCC | 25.2% | – | – |
| Cc1ccc(F)cc1NC(=S)NCCc1ccccc1 | -39.2% | 32.6 µM [falling, partial curve, poor fit] | 0.731 µM [falling, full curve, poor fit] |
| Cn1c(SCc2ccccn2)nnc1-c1ccncc1 | 12.4% | – | – |
| CCOc1ccccc1NC(=O)CN1C(=O)CSC(C)C1=O (configuration not stated) | – | – | 1.64 µM [falling, single point] |
| CCC(=O)N1CCc2cc(Br)cc(S(=O)(=O)N3CCC(C(=O)NC(C)C)CC3)c21 | -28.6% | – | 0.0231 µM [falling, full curve, poor fit] |
| COc1ccc2c(c1)-c1nc(/N=C/c3ccccc3O)sc1CC2 | 2.44% | – | – |
| Cc1ccc(NC(=O)CSc2nnc(CSc3nc(C)cc(C)n3)n2Cc2ccco2)c(C)c1 | – | 9.2 µM [rising, partial curve] | 1.64 µM [rising, partial curve] |
| CCOc1ccc(CNc2nnnn2C)cc1 | 19.9% | – | – |
| N#Cc1ccc2c(c1)C[C@]1(c3ccsc3)OC3=C(C(=O)OC4(CCCCC4)C3)C2O1 | 5.68% | 0.299 µM [rising, partial curve] | – |
| Cc1cc(NC(=O)COC(=O)C(C)Oc2ccc(Cl)cc2Cl)no1 (configuration not stated) | 15.8% | – | – |
| CCOC(=O)c1ccc2c(c1)N(CC(=O)N1CCCC1)C(=O)C(C)(C)O2 | -10.7% | 0.103 µM [falling, full curve, poor fit] | – |
| CCN(c1ccccc1)c1ncnc2c1cnn2-c1ccccc1 | 52.9% | 29.1 µM [rising, single point] | 11.6 µM [rising, partial curve] |
| C=CCNC(=O)CSc1nc2ccccc2c(=O)n1CCc1ccc(OC)c(OC)c1 | -26% | 20.6 µM [falling, single point] | – |
| O=C(NCC1COCCO1)c1cc(COc2ccc(F)cc2F)on1 (configuration not stated) | – | 3.26 µM [falling, single point] | – |
| O=C1c2ccccc2C(=O)N1CCSc1nc2ccccc2c(=O)n1CCCN1CCOCC1 | – | 1.84 µM [rising, partial curve, poor fit] | – |
| COc1ccc(-c2cc(C(F)(F)F)n3ncc(C(=O)NCC4CCCO4)c3n2)cc1OC (configuration not stated) | -2.99% | 32.6 µM [falling, single point] | – |
| O=C(NCc1ccc2c(c1)OCO2)c1cccc(S(=O)(=O)N2CCOCC2)c1 | 8.28% | 11.6 µM [rising, partial curve] | – |
| C[C@H](NC(=O)c1nc[nH]c1C(=O)N1CCNCC1)C(=O)OC(C)(C)C | -30.5% | 0.13 µM [falling, full curve, poor fit] | 0.13 µM [falling, full curve, poor fit] |
| CC12COC3(C(=O)NCCc4ccccc4)CC1CCC32C (configuration not stated) | -0.326% | – | – |
| CCOC(=O)c1c(-c2ccccc2)csc1NC(=O)CSc1nc(C)cc(C)n1 | 13.6% | – | – |
